Assay results as given in PubChem BioAssay AID2685 (National Center for Advancing Translational Sciences (NCATS), 2010).
The other results are listed elsewhere or left out. These are further read-outs of the screen, such as a control signal, another cell line or another target. No call is given for them. Compounds called inactive in the main read-out are mostly missing here. Words in brackets tell the shape of the fitted curve; partial curves, single points and poor fits give uncertain potencies.

Assay: qHTS Assay for Lipid Storage Modulators in Drosophila S3 Cells;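 on cell number change: cells counted by Cell Tracker Red CMTPX staining in the red channel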
Details: BODIPY lipid droplet fluorescence, 18-24 h; for cell number change: measured here: cell count max response, cells fed with added oleic acid
In short: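 Drosophila S3 cells loaded with oleic acid (400 uM, as added) and compounds at several concentrations; lipid droplets imaged by 488-nm laser-scanning cytometry, 500–530 nm intensity and object ratio to cell channel. Percent activity normalized to 20 uM Triacsin C.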

[1] = measured here: lipid fluorescence (Fed channel) AC50, cells fed with added oleic acid
[2] = measured here: cell number channel AC50, cells fed with added oleic acid

SMILES: CC(C)N(C(=O)C[n+]1ccc(/C=N/O)cc1)C(C)C
- cell number change: 6.09%
- AC50 [1]: 7.31 µM [falling, single point]

SMILES: Cc1ccc(C2CC(c3cccs3)=NN2C(=O)CCl)cc1 (configuration not stated)
- cell number change: -24.7%
- AC50 [1]: 20.6 µM [falling, single point]

SMILES: S=C(NCCc1ccncc1)Nc1ccccc1
- AC50 [1]: 4.11 µM [falling, partial curve, poor fit]

SMILES: COC(=O)c1ccc(/C=N/NC(=O)CC(=O)NCC(C)C)cc1
- cell number change: 19%
- AC50 [1]: 29.1 µM [rising, single point]

SMILES: CC1Cc2ccccc2N1C(=O)CCS(=O)(=O)c1cccc2nonc12 (configuration not stated)
- cell number change: 7.71%
- AC50 [1]: 16.4 µM [rising, single point]

SMILES: O=C(Nc1nc2ccc(S(=O)(=O)N3CCOCC3)cc2s1)c1cccs1
- cell number change: 20.3%
- AC50 [2]: 0.0092 µM [rising, full curve, poor fit]

SMILES: CC(NC(=O)Cn1cc(Br)c([N+](=O)[O-])n1)c1ccccc1 (configuration not stated)
- cell number change: 17.3%
- AC50 [1]: 18.4 µM [rising, single point]

SMILES: CCOc1ccc(C(=O)NC(=S)Nc2ccc(N3CCCCC3)cc2)cc1[N+](=O)[O-]
- cell number change: -6.66%
- AC50 [1]: 29.1 µM [falling, single point]

SMILES: CC(=O)c1ccc(NC(=O)CSc2nc(Nc3ccccc3)nc(N3CCOCC3)n2)cc1
- cell number change: 26.1%
- AC50 [2]: 6.51 µM [rising, single point]

SMILES: CC1=CC2=NC(=O)/C(=C\c3cccn3CCOc3ccc(C)c(C)c3)C(=N)N2O1
- cell number change: 8.15%
- AC50 [1]: 6.51 µM [rising, partial curve]

SMILES: COC(=O)c1sc(NC(=O)CCCn2nc([N+](=O)[O-])cc2C)c(C(=O)OC)c1C
- cell number change: 20.6%
- AC50 [1]: 1.64 µM [rising, full curve]

SMILES: CCn1c(COc2cccc(C)c2)nnc1SCC(=O)Nc1cccc(C(=O)OC)c1
- cell number change: -25.6%
- AC50 [1]: 32.6 µM [falling, single point]

SMILES: O=C1C2CCCCN2C(=O)N1CCCCN1CCN(c2ccc([N+](=O)[O-])cc2)CC1 (configuration not stated)
- cell number change: 38.2%
- AC50 [2]: 23.1 µM [rising, single point]
- AC50 [1]: 6.51 µM [rising, single point]

SMILES: Cc1ccnc(OC(C(=O)O)C(OCc2ccccc2)(c2ccccc2)c2ccc(C(F)(F)F)cc2)n1 (configuration not stated)
- cell number change: -1.59%
- AC50 [1]: 6.51 µM [rising, partial curve, poor fit]

SMILES: Cn1c(=O)[nH]c(=O)c2c1nc(NC1CCCC1)n2Cc1ccccc1
- cell number change: 20.5%

SMILES: O=C(Nc1ccc(Cl)c(S(=O)(=O)N2CCOCC2)c1)[C@@H]1CCCN1C(=O)c1cccs1
- cell number change: 6.22%

SMILES: CCN(C(=O)Cn1cc(C(F)(F)F)ccc1=O)c1c(N)n(Cc2ccccc2)c(=O)[nH]c1=O
- cell number change: -28.6%
- AC50 [1]: 0.58 µM [rising, single point]

SMILES: Fc1cccc(Cl)c1-c1nnc2ccc(N3CCOCC3)nn12
- cell number change: -9.43%
- AC50 [1]: 0.0206 µM [falling, full curve, poor fit]

SMILES: O=C(O)c1cccc(S(=O)(=O)Nc2ccc3[nH]c(=O)[nH]c3c2)c1
- cell number change: -19.5%
- AC50 [1]: 0.651 µM [falling, full curve]

SMILES: CC(NC(=O)CCC(=O)N1CCN(S(=O)(=O)c2ccc(Cl)cc2)CC1)c1ccccc1 (configuration not stated)
- cell number change: -5.62%

SMILES: O=C(NNc1nc2cc3c(cc2s1)OCCO3)c1ccc(F)cc1
- cell number change: 33.9%
- AC50 [1]: 29.1 µM [rising, single point]

SMILES: Cc1ccc(COC(=O)c2cc([N+](=O)[O-])ccc2N2CCOCC2)cc1
- cell number change: 33.7%
- AC50 [1]: 5.62 µM [rising, single point]

SMILES: O=C(NCc1ccccc1Cl)C1CCN(S(=O)(=O)c2cccc3nonc23)CC1
- cell number change: 119%
- AC50 [2]: 29.1 µM [rising, single point]

SMILES: C=CCn1c(C)nnc1SCC(=O)c1[nH]c(C)c(C(C)=O)c1C
- cell number change: 38.3%
- AC50 [2]: 1.84 µM [rising, full curve]
- AC50 [1]: 0.731 µM [rising, full curve]

SMILES: O=C(Nc1ccccc1C(=O)O)c1cccc(NC(=O)c2ccccc2Cl)c1
- cell number change: -5.47%
- AC50 [1]: 0.58 µM [falling, single point]

SMILES: Cc1noc(C)c1CSCC(=O)Nc1ccc(OC(F)F)c(Cl)c1
- cell number change: -50%
- AC50 [2]: 0.651 µM [rising, full curve]

SMILES: Cc1ccc(-n2c(SCC(=O)Nc3ccc4cn[nH]c4c3)nnc2-c2ccco2)cc1
- cell number change: -55.4%
- AC50 [2]: 20.6 µM [falling, partial curve]
- AC50 [1]: 0.651 µM [rising, partial curve, poor fit]

SMILES: O=S(=O)(c1ccc(Br)cc1)N1CCCN(Cc2cccc(F)c2)CC1
- cell number change: -8.22%
- AC50 [1]: 0.00461 µM [falling, full curve, poor fit]

SMILES: CCn1c(Cc2cccs2)nnc1SCC(=O)NC1CC1
- AC50 [1]: 23.1 µM [rising, partial curve]

SMILES: CCOC(=O)CCN(Cc1cccs1)S(=O)(=O)c1ccc(F)cc1
- cell number change: 17.5%
- AC50 [1]: 0.103 µM [rising, partial curve, poor fit]

SMILES: COC(=O)c1ccc(CNC(=O)COC(=O)CC23CC4CC(CC(Br)(C4)C2)C3)cc1
- AC50 [1]: 6.51 µM [falling, partial curve, poor fit]

SMILES: CCOc1ccc(NC(=O)CSc2nnc(C3CC3)n2N)cc1
- cell number change: 33.7%
- AC50 [2]: 25.9 µM [rising, single point]

SMILES: Cc1ccc(S(=O)(=O)Nc2ccc(S(=O)(=O)Nc3nccs3)cc2)c([N+](=O)[O-])c1
- cell number change: 112%
- AC50 [2]: 14.6 µM [rising, partial curve]
- AC50 [1]: 29.1 µM [rising, single point]

SMILES: Cc1ccc2c(c1)nnn2C1CCN(S(=O)(=O)c2ccc(C(=O)NC3CCCC3)cc2)CC1
- cell number change: 24.5%
- AC50 [2]: 2.06 µM [rising, partial curve]

SMILES: CCCCNC(=O)C1CCN(C(=O)C2CCN(S(=O)(=O)c3ccc(C)cc3)CC2)CC1
- cell number change: -9.43%
- AC50 [1]: 6.51 µM [falling, partial curve, poor fit]

SMILES: C/C=C/C(=O)NCCc1ccc(OC)c(OC)c1
- cell number change: -7.73%
- AC50 [2]: 2.06 µM [falling, partial curve, poor fit]

SMILES: COc1ccc(Cl)cc1NC(=O)C(C)OC(=O)c1ccc(NS(=O)(=O)c2ccc3[nH]c(=O)[nH]c3c2)cc1 (configuration not stated)
- cell number change: 1.99%
- AC50 [1]: 16.4 µM [rising, partial curve]
